No constants are given. Whether binding was seen depends on the method and setting. Binding seen in cells or lysates may run through a third protein. Some binding calls cover weakened binding; strength is not graded here. For some assays here: Tags and fused reporters may be left off the sequences shown.
Assays:
[1] = biological target: Sho1-DHFR F[1,2]-FLAG (WT bait) (S. cerevisiae) (UniProt P40073); test: split reporter
[2] = biological target: T1, Nbp2-DHFR F[1,2]-FLAG (WT bait) (S. cerevisiae) (UniProt Q12163); test: split reporter
T1 sequence: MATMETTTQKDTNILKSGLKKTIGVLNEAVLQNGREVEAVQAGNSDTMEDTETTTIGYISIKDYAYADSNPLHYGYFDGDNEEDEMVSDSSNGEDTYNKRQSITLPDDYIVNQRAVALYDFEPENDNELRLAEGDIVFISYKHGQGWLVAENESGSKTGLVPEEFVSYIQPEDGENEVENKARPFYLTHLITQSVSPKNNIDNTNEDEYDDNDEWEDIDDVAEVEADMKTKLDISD

Amino acid sequences for entries named in this document (tags omitted).
UniProt P40073: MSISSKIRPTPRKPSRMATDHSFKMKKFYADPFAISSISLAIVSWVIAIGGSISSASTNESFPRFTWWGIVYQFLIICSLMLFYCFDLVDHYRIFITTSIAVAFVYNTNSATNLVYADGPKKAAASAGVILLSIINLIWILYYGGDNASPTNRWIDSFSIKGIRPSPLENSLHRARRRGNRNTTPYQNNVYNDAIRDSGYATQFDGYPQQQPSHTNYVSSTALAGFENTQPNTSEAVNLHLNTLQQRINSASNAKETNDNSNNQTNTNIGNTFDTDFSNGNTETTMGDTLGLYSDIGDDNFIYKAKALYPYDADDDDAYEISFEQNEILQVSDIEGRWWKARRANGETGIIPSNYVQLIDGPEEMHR

B1: Pbs2-DHFR F[3] (protein, UniProt P08018 1-668)
chain: MEDKFANLSLHEKTGKSSIQLNEQTGSDNGSAVKRTSSTSSHYNNINADLHARVKAFQEQRALKRSASVGSNQSEQDKGSSQSPKHIQQIVNKPLPPLPVAGSSKVSQRMSSQVVQASSKSTLKNVLDNQETQNITDVNINIDTTKITATTIGVNTGLPATDITPSVSNTASATHKAQLLNPNRRAPRRPLSTQHPTRPNVAPHKAPAIINTPKQSLSARRGLKLPPGGMSLKMPTKTAQQPQQFAPSPSNKKHIETLSNSKVVEGKRSNPGSLINGVQSTSTSSSTEGPHDTVGTTPRTGNSNNSSNSGSSGGGGLFANFSKYVDIKSGSLNFAGKLSLSSKGIDFSNGSSSRITLDELEFLDELGHGNYGNVSKVLHKPTNVIMATKEVRLELDEAKFRQILMELEVLHKCNSPYIVDFYGAFFIEGAVYMCMEYMDGGSLDKIYDESSEIGGIDEPQLAFIANAVIHGLKELKEQHNIIHRDVKPTNILCSANQGTVKLCDFGVSGNLVASLAKTNIGCQSYMAPERIKSLNPDRATYTVQSDIWSLGLSILEMALGRYPYPPETYDNIFSQLSAIVDGPPPRLPSDKFSSDAQDFVSLCLQKIPERRPTYAALTEHPWLVKYRNQDVHMSEYITERLERRNKILRERGENGLSKNVPALHMGGL
Q: How did the binding [1] turn out when B1 was run?
A: binds

Q: What about the binding [2] of the same binder?
A: binds

From publication doi:10.1101/2020.05.18.103002 (bioRxiv, 2020)
